Test [1] deals with APLP2 WT, C-terminally HA tagged or c-myc tagged (UniProt Q06481). Briefly: condition: only denaturing SDS-PAGE, sample buffer without DTT; cross-linking; disulfide bridges through introduced cysteines; N2a lysates in sample buffer without DTT, denaturing SDS-PAGE, Western blot with α-HA. (In western blotting, separated proteins are transferred to a membrane and probed.)
The target in test [2] is endogenous mouse APLP2 (mouse (endogenous in C57BL/6 cortex and mouse cells)) (UniProt Q06335). Briefly: native gel or EMSA; Blue Native PAGE, semi-denaturing conditions, of mouse primary cortical neurons at DIV5 and DIV19; Western blot with Y188, 57 or D2-II. A general note: A gel shift assay detects complexes by their altered migration in electrophoresis.
In the next test the target is APLP2 S692C, HA tagged (UniProt Q06481). The test is described as follows: cross-linking; disulfide bridges through introduced cysteines; N2a lysates in sample buffer without DTT, denaturing SDS-PAGE, Western blot with α-HA.
In a further test the target is APLP2 L690C, HA tagged (UniProt Q06481). The test is described as above.
Test [3] concerns the target T1, endogenous mouse APLP2 (mouse (endogenous in C57BL/6 cortex and mouse cells)), Q06335.
T1 chain: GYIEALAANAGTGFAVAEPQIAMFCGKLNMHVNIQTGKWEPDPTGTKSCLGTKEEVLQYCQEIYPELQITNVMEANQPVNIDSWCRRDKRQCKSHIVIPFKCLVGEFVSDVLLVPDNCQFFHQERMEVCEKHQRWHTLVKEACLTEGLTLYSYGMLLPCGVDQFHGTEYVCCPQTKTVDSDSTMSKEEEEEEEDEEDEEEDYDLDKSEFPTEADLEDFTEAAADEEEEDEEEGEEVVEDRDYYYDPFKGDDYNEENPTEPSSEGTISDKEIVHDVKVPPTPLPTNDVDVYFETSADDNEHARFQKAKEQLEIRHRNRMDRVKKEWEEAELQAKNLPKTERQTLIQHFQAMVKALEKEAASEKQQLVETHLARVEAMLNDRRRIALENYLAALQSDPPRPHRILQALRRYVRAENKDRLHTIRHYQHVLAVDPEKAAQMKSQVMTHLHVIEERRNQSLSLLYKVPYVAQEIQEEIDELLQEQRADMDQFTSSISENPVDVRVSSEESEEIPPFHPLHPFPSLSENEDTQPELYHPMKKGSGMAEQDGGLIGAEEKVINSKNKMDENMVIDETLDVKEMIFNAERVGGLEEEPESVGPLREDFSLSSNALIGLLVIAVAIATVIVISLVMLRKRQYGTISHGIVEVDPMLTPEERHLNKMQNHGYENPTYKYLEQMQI
The test is described as follows: native gel or EMSA; Blue Native PAGE of the post nuclear fraction (PNF) and concentrated synaptosomes (Syn H-co) of mouse brain, no Triton X-100; Western blot with Y188, 57 or D2-II. The settings on record: remark: other sources report otherwise.

Test [4] concerns the target T1, endogenous mouse APLP2 (mouse …). Briefly: native gel or EMSA; Blue Native PAGE, semi-denaturing conditions, of lysates of mouse primary cortical astrocytes and of untransfected N2a cells (endogenous proteins); Western blot with Y188, 57 or D2-II. The settings on record: remark: other sources report otherwise.
A further test concerns the target APLP1 R579C, HA tagged (UniProt P51693). The test is described as follows: cross-linking; disulfide bridges through introduced cysteines; N2a lysates in sample buffer without DTT, denaturing SDS-PAGE, Western blot with α-HA.
The target of the next test is APLP1 E580C, HA tagged (UniProt P51693). Described as above.
The target in test [5] is APLP1 WT, C-terminally HA tagged or c-myc tagged (UniProt P51693). The test is described as above.
For test [6] the target is unchanged. The test is described as follows: condition: only denaturing SDS-PAGE, sample buffer without DTT; cross-linking; disulfide bridges through introduced cysteines; N2a lysates in sample buffer without DTT, denaturing SDS-PAGE, Western blot with α-HA.
For test [7] the target is unchanged. The test is described as follows: co-IP; cis: HA and c-myc tagged copies co-expressed in the same N2a cells; lysis in 50 mM Tris/HCl pH 7.5, 150 mM NaCl, 5 mM EDTA, 1% NP40; α-HA antibody beads; blot with α-c-myc.
For test [8] the target is unchanged. The test is described as follows: co-IP; trans: HA and c-myc tagged copies transfected into N2a cells in separate dishes, cells combined 4 h post-transfection and co-cultivated; lysis in 1% NP40 buffer; α-HA antibody beads; blot with α-c-myc.

Results are given in words; binding and its absence hold for the method and conditions named. For part of these data: In cells and extracts the contact can be indirect. Some results given as binding are weak or reduced against the parent protein; the word gives no strength. For part of these data: Sequences can lack the tags named with a protein.

“APLP2 WT, C-terminally HA tagged or c-myc tagged (from UniProt Q06481 32-763)”: the binding entry in [1] is reported as “no binding”.

Consider “endogenous mouse APLP2 (from UniProt Q06335 32-707)”, for which the binding entry in test [2] was “binds weakly”.

As for “APLP2 S692C, HA tagged (from UniProt Q06481 32-763)”, the binding result with APLP2 S692C, HA tagged is “binds”.

Regarding “APLP2 L690C, HA tagged (from UniProt Q06481 32-763)”, the binding entry in the test with APLP2 L690C, HA tagged is “binds”.

B1: endogenous mouse APLP2, Q06335 32-707 (natural protein)
chain: GYIEALAANAGTGFAVAEPQIAMFCGKLNMHVNIQTGKWEPDPTGTKSCLGTKEEVLQYCQEIYPELQITNVMEANQPVNIDSWCRRDKRQCKSHIVIPFKCLVGEFVSDVLLVPDNCQFFHQERMEVCEKHQRWHTLVKEACLTEGLTLYSYGMLLPCGVDQFHGTEYVCCPQTKTVDSDSTMSKEEEEEEEDEEDEEEDYDLDKSEFPTEADLEDFTEAAADEEEEDEEEGEEVVEDRDYYYDPFKGDDYNEENPTEPSSEGTISDKEIVHDVKVPPTPLPTNDVDVYFETSADDNEHARFQKAKEQLEIRHRNRMDRVKKEWEEAELQAKNLPKTERQTLIQHFQAMVKALEKEAASEKQQLVETHLARVEAMLNDRRRIALENYLAALQSDPPRPHRILQALRRYVRAENKDRLHTIRHYQHVLAVDPEKAAQMKSQVMTHLHVIEERRNQSLSLLYKVPYVAQEIQEEIDELLQEQRADMDQFTSSISENPVDVRVSSEESEEIPPFHPLHPFPSLSENEDTQPELYHPMKKGSGMAEQDGGLIGAEEKVINSKNKMDENMVIDETLDVKEMIFNAERVGGLEEEPESVGPLREDFSLSSNALIGLLVIAVAIATVIVISLVMLRKRQYGTISHGIVEVDPMLTPEERHLNKMQNHGYENPTYKYLEQMQI
On to B1, for which the binding entry in test [3] and in test [4] was “binds” each time.

B2: APLP1 R579C, HA tagged (protein, UniProt P51693 39-650)
chain: SLAGGSPGAAEAPGSAQVAGLCGRLTLHRDLRTGRWEPDPQRSRRCLRDPQRVLEYCRQMYPELQIARVEQATQAIPMERWCGGSRSGSCAHPHHQVVPFRCLPGEFVSEALLVPEGCRFLHQERMDQCESSTRRHQEAQEACSSQGLILHGSGMLLPCGSDRFRGVEYVCCPPPGTPDPSGTAVGDPSTRSWPPGSRVEGAEDEEEEESFPQPVDDYFVEPPQAEEEEETVPPPSSHTLAVVGKVTPTPRPTDGVDIYFGMPGEISEHEGFLRAKMDLEERRMRQINEVMREWAMADNQSKNLPKADRQALNEHFQSILQTLEEQVSGERQRLVETHATRVIALINDQRRAALEGFLAALQADPPQAERVLLALRRYLRAEQKEQRHTLRHYQHVAAVDPEKAQQMRFQVHTHLQVIEERVNQSLGLLDQNPHLAQELRPQIQELLHSEHLGPSELEAPAPGGSSEDKGGLQPPDSKDDTPMTLPKGSTEQDAASPEKEKMNPLEQYERKVNASVPRGFPFHSSEIQRDELAPAGTGVSCEAVSGLLIMGAGGGSLIVLSMLLLRRKKPYGAISHGVVEVDPMLTLEEQQLRELQRHGYENPTYRFLEERP
As for B2, in the test with APLP1 R579C, HA tagged, the binding entry is listed as “binds”.

B3: APLP1 E580C, HA tagged (protein, UniProt P51693 39-650)
chain: SLAGGSPGAAEAPGSAQVAGLCGRLTLHRDLRTGRWEPDPQRSRRCLRDPQRVLEYCRQMYPELQIARVEQATQAIPMERWCGGSRSGSCAHPHHQVVPFRCLPGEFVSEALLVPEGCRFLHQERMDQCESSTRRHQEAQEACSSQGLILHGSGMLLPCGSDRFRGVEYVCCPPPGTPDPSGTAVGDPSTRSWPPGSRVEGAEDEEEEESFPQPVDDYFVEPPQAEEEEETVPPPSSHTLAVVGKVTPTPRPTDGVDIYFGMPGEISEHEGFLRAKMDLEERRMRQINEVMREWAMADNQSKNLPKADRQALNEHFQSILQTLEEQVSGERQRLVETHATRVIALINDQRRAALEGFLAALQADPPQAERVLLALRRYLRAEQKEQRHTLRHYQHVAAVDPEKAQQMRFQVHTHLQVIEERVNQSLGLLDQNPHLAQELRPQIQELLHSEHLGPSELEAPAPGGSSEDKGGLQPPDSKDDTPMTLPKGSTEQDAASPEKEKMNPLEQYERKVNASVPRGFPFHSSEIQRDELAPAGTGVSRCAVSGLLIMGAGGGSLIVLSMLLLRRKKPYGAISHGVVEVDPMLTLEEQQLRELQRHGYENPTYRFLEERP
For B3, in the test with APLP1 E580C, HA tagged, the binding entry is recorded as “binds”.

B4: APLP1 WT, C-terminally HA tagged or c-myc tagged (protein, UniProt P51693 39-650)
chain: SLAGGSPGAAEAPGSAQVAGLCGRLTLHRDLRTGRWEPDPQRSRRCLRDPQRVLEYCRQMYPELQIARVEQATQAIPMERWCGGSRSGSCAHPHHQVVPFRCLPGEFVSEALLVPEGCRFLHQERMDQCESSTRRHQEAQEACSSQGLILHGSGMLLPCGSDRFRGVEYVCCPPPGTPDPSGTAVGDPSTRSWPPGSRVEGAEDEEEEESFPQPVDDYFVEPPQAEEEEETVPPPSSHTLAVVGKVTPTPRPTDGVDIYFGMPGEISEHEGFLRAKMDLEERRMRQINEVMREWAMADNQSKNLPKADRQALNEHFQSILQTLEEQVSGERQRLVETHATRVIALINDQRRAALEGFLAALQADPPQAERVLLALRRYLRAEQKEQRHTLRHYQHVAAVDPEKAQQMRFQVHTHLQVIEERVNQSLGLLDQNPHLAQELRPQIQELLHSEHLGPSELEAPAPGGSSEDKGGLQPPDSKDDTPMTLPKGSTEQDAASPEKEKMNPLEQYERKVNASVPRGFPFHSSEIQRDELAPAGTGVSREAVSGLLIMGAGGGSLIVLSMLLLRRKKPYGAISHGVVEVDPMLTLEEQQLRELQRHGYENPTYRFLEERP
Consider B4, for which the binding result in test [5] is “binds weakly”; in [6], “no binding”; in [7], “binds”; in test [8] it was “binds”.

Values taken from PMC10398996.
